Measurements reported in PubChem BioAssay AID1508588 (Peter MacCallum Cancer Centre, 2020)

Purpose: 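Which gene losses make BRAF-mutant melanoma cells more responsive to vemurafenib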 (primary screen)
Cell system: human WM266.4 melanoma cells (BRAF V600 mutant)
Knock-down reagent: siRNA pool against human genes, 40 nM
Time to read-out: 96 h from transfection to read-out
Treatment: vemurafenib 300 nM (about IC25), added 48 h after transfection, for 48 h; comparison arm got DMSO vehicle only
Detection: 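Ratios to non-targeting siRNA for cell gain, counted as DAPI nuclei after minus before drug and averaged over two replicates, and for absorbance-read medium lactate per cell; both binned into fold-change classes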
Scale: cell gain with vemurafenib: higher = more cell gain than with non-targeting siRNA; lactate per cell with vemurafenib: higher = more lactate made per cell
Call rule: 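Enhancement is called by pairing each knock-down's vehicle-arm and drug-arm fold-change classes for viability or glycolysis; which class combinations qualify is not given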
Calls: active = enhances vemurafenib effect; inactive = no enhancement seen
Shown is a random part of about 18,000 reagents. In the full data, 790 (4.4%) were called active. 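Calls rest on a combination of fold-change classes in drug and vehicle arms, not all shown here.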 Unmarked entries are inactive.

KHNYN (KH and NYN domain containing) [SID152154889]
- cell gain with vemurafenib: 0.75
- lactate per cell with vemurafenib: 1

SLC7A2 [SID152148446]
- cell gain with vemurafenib: 0.84
- lactate per cell with vemurafenib: 1.31

HLA-G (major histocompatibility complex, class I, G) [SID152151638]
- cell gain with vemurafenib: 0.48
- lactate per cell with vemurafenib: 0.43

PRDX3 (peroxiredoxin 3) [SID134314928]
- cell gain with vemurafenib: 1.07
- lactate per cell with vemurafenib: 0.44

DUSP28 (dual specificity phosphatase 28) [SID152154362]
- cell gain with vemurafenib: 0.21
- lactate per cell with vemurafenib: 2.68

ENTPD2 (ectonucleoside triphosphate diphosphohydrolase 2) [SID134315227]
- cell gain with vemurafenib: 0.28
- lactate per cell with vemurafenib: 0.6

BNIP1 (BCL2 interacting protein 1) [SID135622081]
- cell gain with vemurafenib: 0.35
- lactate per cell with vemurafenib: 1.59

ZC3HAV1L (ZC3HAV1 like) [SID134319298]
- cell gain with vemurafenib: 1.04
- lactate per cell with vemurafenib: 0.82

IST1 (IST1 factor associated with ESCRT-III) [SID134324603]
- cell gain with vemurafenib: 0.06
- lactate per cell with vemurafenib: 1.63

C2CD2L (C2CD2 like) [SID134322216]
- cell gain with vemurafenib: 0.63
- lactate per cell with vemurafenib: 1.52

FLYWCH2 (FLYWCH family member 2) [SID135622975]
- cell gain with vemurafenib: -0.1
- lactate per cell with vemurafenib: 1.15

BOP1 (BOP1 ribosomal biogenesis factor) [SID135622663]
- cell gain with vemurafenib: 0.15
- lactate per cell with vemurafenib: 3.37

KDM5A (lysine demethylase 5A) [SID135620658]
- cell gain with vemurafenib: 0.74
- lactate per cell with vemurafenib: 0.48

PAM (peptidylglycine alpha-amidating monooxygenase) [SID134313297]
- cell gain with vemurafenib: 0.5
- lactate per cell with vemurafenib: 2.01

OR4L1 (olfactory receptor family 4 subfamily L member 1) [SID135624270]
- cell gain with vemurafenib: 0.47
- lactate per cell with vemurafenib: 1.08

TMSB15A (thymosin beta 15A) [SID135623835]
- cell gain with vemurafenib: 0.55
- lactate per cell with vemurafenib: 1.83

Entries above whose gene name starts with B or b:
BNIP1 (BCL2 interacting protein 1) [SID135622081]
- cell gain with vemurafenib: 0.35
- lactate per cell with vemurafenib: 1.59

BOP1 (BOP1 ribosomal biogenesis factor) [SID135622663]
- cell gain with vemurafenib: 0.15
- lactate per cell with vemurafenib: 3.37
